Results: US20090318504A1, “Use of GAL3 receptor antagonists for the treatment of depression and/or anxiety and compounds useful in such methods” (priority 2001, published 2009)
At least one structure is not confirmed: it was looked up by name or label, or the drawing left a doubt.

System: male Sprague-Dawley rats
Assay: Rat Social Interaction Test (SIT)
Format: in vivo
Conditions: 5 mg/kg

## CNC1=Nc2ccc(Cl)cc2C(c2ccccc2)=[N+]([O-])C1 [Chlordiazepoxide, chlordiazepoxide, reference compound]
Unfamiliar cage mates, single p.o., one hour before test
  Social Interaction: significantly increased social interaction
Unfamiliar rats, i.p., 1 hour before 15 min test
  Social Interaction: significantly increased social interaction
